At least one structure is not confirmed: it was looked up by name or label, or the drawing left a doubt.
Legend:
Format in all cases: cell-based
Salmonella enteritidis [1] = assay: micro broth dilution, coniferaldehyde and vanillin with and without DHAA (Example 9); settings: Vanilin/Coniferylaldehyde 0/0; DHAA 20 mM alone
Procedure: All stock solutions were stored at 5° C. In vitro bioassay: The MIC of the different treatments was determined using a micro broth dilution method. […] Control wells were prepared by adding 100 μL acetone. […] […] The plates were placed in a laminar flow chamber for 8 hours to evaporate the solvent. […] Where possible, colonies were counted to obtain more precise quantitative data.

S. enteritidis = assay: inhibition zone experiment on TLC plate; settings: FIG. 3
Procedure: Two test solutions were prepared, i.e.: (i) vanillin in combination with DHAA, and (ii) stilbene in combination with dehydro-abietic acid (DHAA). The activity of the solutions were then tested on several different micro-organisms, as follows.
A droplet of a test solution was placed on a TLC plate. The solvent was allowed to evaporate and a suspension of test micro-organisms (Gram-positive and Gram-negative bacteria) in broth was applied evenly onto the TLC plate. The plate was incubated overnight. To visualise microbial activity, the TLC plate was sprayed with tetrazolium salt solution. Microbial activity was indicated by a red-pink colour.

Salmonella enteritidis [2] = assay: perlite bio-assay with pure DHAA and vanillin (Example 7); settings: DHAA only
Procedure: Also, one 20 mM stock solution of DHAA was made in acetone. Bioassay test: The test was carried out using 1.5 ml Eppendorf tubes containing 10 mg of fine perlite. Ten μl of each concentration of vanillin was dispensed into four Eppendorf tubes to obtain four replicates of each concentration. Two of these received 10 μl of DHAA. The tubes were left in laminar flow chamber for 3 h to allow evaporation of the acetone. […] To keep the perlite moist during incubation, 10 μl of sterile R.O water was dispensed into each tube. As controls, two tubes received DHAA only and two tubes received R.O water only. The tubes were incubated overnight, and bacterial survival was quantified by plating the content of each tube onto nutrient agar for the bacterial count.

Compound: CC(C)c1ccc2c(c1)CC[C@H]1[C@](C)(C(=O)O)CCC[C@]21C [Dehydro-Abietic acid, dehydroabietic acid]
- Colony counts (Salmonella enteritidis [1]): TMTC
- inhibition of S. enteritidis on TLC plate (S. enteritidis): ineffective
- Salmonella enteritidis count (Salmonella enteritidis [2]): DHAA: TMTC

Source: US9743675B2, “Antimicrobial composition” (UNIVERSITY OF SURREY, priority 2009, dated 2017)
